{"source": "patent US5554359A", "about": "“Pigmentation enhancer and method” (priority 1994, dated 1996)", "system": "tyrosinase activity in human melanocytes", "assay": "Tyrosinase responses in human melanocytes (Table 6)", "assay_type": "cell-based", "parameters": "key to the marks not given beside the values", "conditions": "10^-7 M except IBMX 10^-4 M, theophylline 1 mM, ammonium chloride 10 mM, A23187 not given, melanocytes from skin type III", "protocol": "The mouse melanoma cell lines used to study the effects of lysosomotropic agents herein were the Cloudman S91 cell line (ATCC no. CCL 53.1) and two subclones of this line developed in our laboratory, the amelanotic line, AM-7, and a melanotic line, MEL-11A. All melanoma cell lines were grown in Ham's F-10 nutrient medium supplemented with 10% horse serum, penicillin (100 units/ml), and streptomycin (100 μg/ml). The normal human melanocyte cell strains used in this study were derived from foreskins of either neonares or from boys 2-6 years old. Human melanocyte cultures were grown in Ham's F-10 nutrient medium supplemented with 10% horse serum, 5% fetal bovine serum (FBS), 32 nM TPA (12-O-tetradecanoylphorbol 13-acetate), 10^-4 M IBMX(3-isobutyl-1-methylxanthine), penicillin (100 units/ml), and streptomycin (100 μg/ml).\nTo determine tyrosinase activity in situ in either melanoma cells or in human melanocyte cultures, the tyrosine hydroxylase activity of the enzyme was determined. […] Tyrosinase activity in cell homogenates was determined by sonicating cell pellets in 0.1-M sodium phosphate buffer (pH 6.8) and then incubating 50-μl aliquots in 0.5 ml of a reaction mixture containing 0.1-mM tyrosine, 2 μCi/ml of [^3 H]tyrosine, 0.1-mM L-DOPA (dihydroxyphenylalanine), and 0.1 mM PMSF (phenylmethylsulfonyl fluoride) at 37° C. for 2 hours. […]", "note": "At least one compound was matched to its structure with a doubt left.", "data": [{"compound": "Cl.N", "note": "[Ammonium chloride, ammonium chloride]", "values": [{"measurement": "Effect on Tyrosinase Activity, Human Melanocyte", "value": "+++"}]}]}
